Results as given in PMC6047807.
These are yes or no findings as the source states them, for the method shown. Some binding calls cover weakened binding; strength is not graded here. Where a sequence is shown, tags or fusion partners need not be part of it.

Chains of the proteins cited; added tags and fusions are not shown.
UniProt P06612: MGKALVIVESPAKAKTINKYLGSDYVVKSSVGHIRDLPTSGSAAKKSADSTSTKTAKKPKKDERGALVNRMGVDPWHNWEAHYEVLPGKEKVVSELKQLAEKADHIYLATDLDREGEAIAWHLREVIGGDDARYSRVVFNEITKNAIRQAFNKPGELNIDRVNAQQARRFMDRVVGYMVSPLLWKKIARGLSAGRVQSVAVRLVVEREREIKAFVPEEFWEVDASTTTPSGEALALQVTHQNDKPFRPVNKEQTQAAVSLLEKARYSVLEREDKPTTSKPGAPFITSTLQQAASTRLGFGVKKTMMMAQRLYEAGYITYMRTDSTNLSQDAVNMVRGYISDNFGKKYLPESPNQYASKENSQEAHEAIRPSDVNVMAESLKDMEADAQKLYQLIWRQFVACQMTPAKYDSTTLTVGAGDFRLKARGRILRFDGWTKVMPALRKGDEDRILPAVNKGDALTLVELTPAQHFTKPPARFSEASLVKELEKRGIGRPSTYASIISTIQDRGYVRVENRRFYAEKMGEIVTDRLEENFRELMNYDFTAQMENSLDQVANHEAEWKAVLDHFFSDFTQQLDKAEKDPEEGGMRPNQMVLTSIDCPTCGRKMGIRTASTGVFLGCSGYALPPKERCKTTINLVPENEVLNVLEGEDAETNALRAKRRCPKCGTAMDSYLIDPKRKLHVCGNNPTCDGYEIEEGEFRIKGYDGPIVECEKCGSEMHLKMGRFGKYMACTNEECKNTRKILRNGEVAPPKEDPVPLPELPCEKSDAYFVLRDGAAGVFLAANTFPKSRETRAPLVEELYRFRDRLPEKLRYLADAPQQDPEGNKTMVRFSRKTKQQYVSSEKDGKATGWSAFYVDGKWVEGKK

Target: Topoisomerase I (TopA) fused to T25 (E. coli) (UniProt P06612)
Assay: two-hybrid; bacterial two-hybrid (T18 and T25 fragments, cAMP-dependent lacZ reporter) in E. coli BTH101; colour of colonies and streaks on LB plates with X-gal, 30 °C, 30 hours

binding: binds weakly
B1: RstA fused to T18 (protein, UniProt P52108 1-239)
chain: MNTIVFVEDDAEVGSLIAAYLAKHDMQVTVEPRGDQAEETILRENPDLVLLDIMLPGKDGMTICRDLRAKWSGPIVLLTSLDSDMNHILALEMGACDYILKTTPPAVLLARLRLHLRQNEQATLTKGLQETSLTPYKALHFGTLTIDPINRVVTLANTEISLSTADFELLWELATHAGQIMDRDALLKNLRGVSYDGLDRSVDVAISRLRKKLLDNAAEPYRIKTVRNKGYLFAPHAWE
